Assay [1] deals with estrogen receptor β (mouse (endogenous in frontal cortex of Swiss albino mice)) (UniProt O08537). As to the kind of experiment: co-IP; as a1; tamoxifen supplemented prior to MPTP, male mice, day1, day3, day7.
Assay [2] has the same target. The assay can be described thus: co-IP; as a1; tamoxifen supplemented prior to MPTP, female mice, day1, day3, day7.
The target is the same in assay [3]. The assay can be described thus: co-IP; about 100 μg protein of frontal cortex (nuclear fractionation) of male and female mice precipitated with anti-ERβ overnight at 4 °C, Protein G agarose, washed with PBS, western blot for ERα, p65, RelB; groups: control, MPTP, estrogen + MPTP, tamoxifen + MPTP, estrogen + tamoxifen + MPTP; sacrifice on day1, day3, day7. Background: Immunoblotting shows a protein as a band on a membrane.

The chains behind the UniProt entries cited, without tags or fusion partners.
UniProt O08537: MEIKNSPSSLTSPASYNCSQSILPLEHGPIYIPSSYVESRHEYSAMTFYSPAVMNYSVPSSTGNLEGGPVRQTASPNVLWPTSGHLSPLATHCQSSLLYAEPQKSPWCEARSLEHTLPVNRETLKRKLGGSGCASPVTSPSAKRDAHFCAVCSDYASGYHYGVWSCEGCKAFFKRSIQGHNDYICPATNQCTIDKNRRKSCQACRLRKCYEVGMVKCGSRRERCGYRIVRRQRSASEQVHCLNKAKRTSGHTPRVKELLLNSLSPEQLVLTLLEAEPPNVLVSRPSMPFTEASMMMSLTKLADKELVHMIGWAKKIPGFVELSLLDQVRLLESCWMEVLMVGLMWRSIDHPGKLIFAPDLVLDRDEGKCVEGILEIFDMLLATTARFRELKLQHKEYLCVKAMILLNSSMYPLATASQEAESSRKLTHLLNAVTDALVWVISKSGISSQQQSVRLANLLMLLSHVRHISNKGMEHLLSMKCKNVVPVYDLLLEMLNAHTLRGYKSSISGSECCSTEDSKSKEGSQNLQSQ
UniProt P19785: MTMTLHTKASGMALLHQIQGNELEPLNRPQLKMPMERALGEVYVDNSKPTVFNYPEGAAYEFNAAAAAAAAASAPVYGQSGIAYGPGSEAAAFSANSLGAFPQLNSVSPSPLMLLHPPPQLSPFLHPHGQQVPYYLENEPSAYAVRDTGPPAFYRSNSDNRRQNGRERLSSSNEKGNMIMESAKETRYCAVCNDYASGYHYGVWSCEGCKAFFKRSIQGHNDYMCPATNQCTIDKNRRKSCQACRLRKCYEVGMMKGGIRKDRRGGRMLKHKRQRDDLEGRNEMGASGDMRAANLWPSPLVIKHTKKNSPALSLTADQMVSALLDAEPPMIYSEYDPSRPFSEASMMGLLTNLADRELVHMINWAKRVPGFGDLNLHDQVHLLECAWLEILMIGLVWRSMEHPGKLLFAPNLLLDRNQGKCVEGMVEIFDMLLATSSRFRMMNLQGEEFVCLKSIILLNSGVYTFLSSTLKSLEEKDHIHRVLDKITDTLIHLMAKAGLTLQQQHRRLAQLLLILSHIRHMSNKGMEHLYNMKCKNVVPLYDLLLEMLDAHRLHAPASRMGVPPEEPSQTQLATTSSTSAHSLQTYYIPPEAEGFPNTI
UniProt Q04207: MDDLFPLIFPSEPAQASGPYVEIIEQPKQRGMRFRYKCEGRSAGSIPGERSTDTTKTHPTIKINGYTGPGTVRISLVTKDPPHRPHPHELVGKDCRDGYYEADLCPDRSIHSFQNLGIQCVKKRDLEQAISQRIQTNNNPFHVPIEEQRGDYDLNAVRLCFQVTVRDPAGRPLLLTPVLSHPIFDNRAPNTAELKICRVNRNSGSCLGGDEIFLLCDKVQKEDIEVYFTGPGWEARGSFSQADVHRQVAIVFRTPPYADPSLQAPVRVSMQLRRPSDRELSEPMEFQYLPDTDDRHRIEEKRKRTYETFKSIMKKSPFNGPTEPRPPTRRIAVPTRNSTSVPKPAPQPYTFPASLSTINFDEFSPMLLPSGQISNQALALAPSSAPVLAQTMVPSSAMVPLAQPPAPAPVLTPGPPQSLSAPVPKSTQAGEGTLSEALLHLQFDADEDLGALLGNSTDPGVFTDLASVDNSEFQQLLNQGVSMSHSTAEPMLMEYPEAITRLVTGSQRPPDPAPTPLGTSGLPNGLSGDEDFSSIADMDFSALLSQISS

The target is the same in assay [4]. As to the kind of experiment: co-IP; as a1; MPTP-treated male mice, day1, day3, day7.
Assay [5] shares this target. The assay can be described thus: condition: only estrogen supplemented prior to MPTP treatment, female mice; co-IP; as a1; estrogen supplemented prior to MPTP, female mice.
The target is the same in assay [6]. As to the kind of experiment: condition: only tamoxifen supplemented prior to MPTP treatment, male mice; co-IP; as a1; tamoxifen supplemented prior to MPTP, male mice, day1, day3, day7.
For assay [7] the target is unchanged. The assay can be described thus: condition: only estrogen supplemented and estrogen receptors blocked (tamoxifen) prior to MPTP treatment; co-IP; as a1; estrogen + tamoxifen supplemented prior to MPTP, male and female mice.
For assay [8] the target is unchanged. The assay can be described thus: condition: only estrogen and tamoxifen supplemented, MPTP-treated male mice, day7; co-IP; as a1; estrogen + tamoxifen supplemented prior to MPTP, male mice, day7.
Assay [9] has the same target. As to the kind of experiment: co-IP; about 100 μg protein of frontal cortex (nuclear fractionation) of male and female mice precipitated with anti-ERβ overnight at 4 °C, Protein G agarose, washed with PBS, western blot for ERα, p65, RelB; groups: control, MPTP, estrogen + MPTP, tamoxifen + MPTP, estrogen + tamoxifen + MPTP; sacrifice on day1, day3, day7. This is another data set of the same source.

Results are given in words; binding and its absence hold for the method and conditions named. Binding seen in cells or lysates may run through a third protein. Some results given as binding are weak or reduced against the parent protein; the word gives no strength.

Take “estrogen receptor α (from UniProt P19785 1-599)”: the binding result in assay [1] is on record as “binds weakly”; in assay [2] it was “binds weakly”; in [3], “binds”.

For “NF-κB molecule p65 (from UniProt Q04207 1-549)”, the binding result is “no binding (condition: MPTP-treated male mice)” in assay [4]; “binds weakly” in assay [2]; “no binding” in assay [5]; “no binding” in assay [6]; “no binding” in assay [7]; “binds” in [3].

B1: NF-κB molecule RelB (protein, UniProt Q04863 1-558)
chain: MPSRRAARESAPELGALGSSDLSSLSLTVSRTTDELEIIDEYIKENGFGLDGTQLSEMPRLVPRGPASLSSVTLGPAAPPPPATPSWSCTLGRLVSPGPCPRPYLVITEQPKQRGMRFRYECEGRSAGSILGESSTEASKTLPAIELRDCGGLREVEVTACLVWKDWPHRVHPHSLVGKDCTDGVCRVRLRPHVSPRHSFNNLGIQCVRKKEIEAAIERKIQLGIDPYNAGSLKNHQEVDMNVVRICFQASYRDQQGHLHRMDPILSEPVYDKKSTNTSELRICRINKESGPCTGGEELYLLCDKVQKEDISVVFSTASWEGRADFSQADVHRQIAIVFKTPPYEDLEISEPVTVNVFLQRLTDGVCSEPLPFTYLPRDHDSYGVDKKRKRGLPDVLGELSSSDPHGIESKRRKKKPVFLDHFLPGHSSGLFLPPSALQPADSDFFPASISLPGLEPPGGPDLLDDGFAYDPSAPTLFTMLDLLPPAPPLASAVVGSGGAGATVVESSGPEPLSLDSFAAPGPGDVGTASLVGSNMFPNQYREAAFGGGLLSPGPEAT
B1: the binding entry in assay [8] is listed as “no binding”; in assay [9], “binds”.

The values above are taken from article PMC4568517.
